# PubChem BioAssay AID1259405, NCATS – 2018
# Purpose: 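Silenced genes that increase secreted GFP made by CHO cells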 (primary screen)
# System: Chinese hamster CHO-K1 ovary cells with stable secreted eGFP expression
# Reagent: single siRNA against mouse genes, 0.8 pmol siRNA per well (2 µl of 400 nM stock)
# Time to read-out: 3 days
# Detection: 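Per-well intracellular GFP measured by laser scanning cytometry, plus viability from ATP luminescence, each relative to plate median of non-targeting control wells, in %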
# Direction: GFP, % of control: higher = more GFP per well, higher productivity; viability (ATP), % of control: higher = more viable cells (more ATP)
# Call rule: 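a knock-down is called active if GFP reaches 120% or more of non-targeting control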
# Shown is an unselected part of about 50,000 reagents. Of all reagents, about 4,000 (8%) were called active. 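Mouse siRNA library applied to hamster cells; one well for each siRNA.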 The numbers tell different reagents against one gene apart. Reagent sequences are not shown.
Target gene,siRNA no.,"GFP, % of control","viability (ATP), % of control",outcome
"Diablo (diablo, IAP-binding mitochondrial protein)",1,72.9,76.7,inactive
"Diablo (diablo, IAP-binding mitochondrial protein)",2,116,96.7,inactive
Slc23a1,1,69.5,76.7,inactive
Slc23a1,2,144,92.5,active
Slc23a1,3,58.9,70,inactive
Pycard (PYD and CARD domain containing),1,73.4,46.8,inactive
Pycard (PYD and CARD domain containing),2,71.4,77.3,inactive
Pycard (PYD and CARD domain containing),3,79.8,94.4,inactive
Sgsm3 (small G protein signaling modulator 3),1,97.2,75.2,inactive
Sgsm3 (small G protein signaling modulator 3),2,52,44.3,inactive
Sgsm3 (small G protein signaling modulator 3),3,28,21.3,inactive
Krt90 (keratin 90),1,46.6,58,inactive
Krt90 (keratin 90),2,81.3,88.7,inactive
Krt90 (keratin 90),3,149,33.3,active
"Coro2b (coronin, actin binding protein, 2B)",1,106,90.5,inactive
"Coro2b (coronin, actin binding protein, 2B)",2,78.1,82.9,inactive
"Coro2b (coronin, actin binding protein, 2B)",3,108,89.8,inactive
"Mta2 (metastasis-associated gene family, member 2)",1,59.6,79,inactive
"Mta2 (metastasis-associated gene family, member 2)",2,62.7,65.7,inactive
"Mta2 (metastasis-associated gene family, member 2)",3,69.9,75.1,inactive
Rpsa (ribosomal protein SA),1,45.3,73.4,inactive
Rpsa (ribosomal protein SA),2,31.8,38.4,inactive
Rpsa (ribosomal protein SA),3,104,104,inactive
Rapgef3 (Rap guanine nucleotide exchange factor (GEF) 3),1,96.2,47.4,inactive
Rapgef3 (Rap guanine nucleotide exchange factor (GEF) 3),2,91.9,58,inactive
Rapgef3 (Rap guanine nucleotide exchange factor (GEF) 3),3,95.7,84,inactive
Tmt1a (thiol methyltransferase 1A1),1,93.1,65,inactive
Tmt1a (thiol methyltransferase 1A1),2,37.8,38.5,inactive
Tmt1a (thiol methyltransferase 1A1),3,91.2,79.8,inactive
Mfap3l (microfibrillar-associated protein 3-like),1,54.4,36.4,inactive
Mfap3l (microfibrillar-associated protein 3-like),2,69.3,70.8,inactive
Mfap3l (microfibrillar-associated protein 3-like),3,59.3,55.3,inactive

The list goes on, starting with the last 4 of the part before.
Target gene,siRNA no.,"GFP, % of control","viability (ATP), % of control",outcome
Tmt1a (thiol methyltransferase 1A1),3,91.2,79.8,inactive
Mfap3l (microfibrillar-associated protein 3-like),1,54.4,36.4,inactive
Mfap3l (microfibrillar-associated protein 3-like),2,69.3,70.8,inactive
Mfap3l (microfibrillar-associated protein 3-like),3,59.3,55.3,inactive
"Rab39a (RAB39A, member RAS oncogene family)",1,73.5,117,inactive
"Rab39a (RAB39A, member RAS oncogene family)",2,52.4,62.1,inactive
"Rab39a (RAB39A, member RAS oncogene family)",3,85.2,88.3,inactive
Aqp12 (aquaporin 12),1,69,80.4,inactive
Aqp12 (aquaporin 12),2,103,88.2,inactive
Aqp12 (aquaporin 12),3,190,79.6,active
Iapp (islet amyloid polypeptide),1,33.2,44.3,inactive
Iapp (islet amyloid polypeptide),2,46.5,60.9,inactive
Iapp (islet amyloid polypeptide),3,69,51,inactive
"Plat (plasminogen activator, tissue)",1,49,69,inactive
"Plat (plasminogen activator, tissue)",2,68.8,55.8,inactive
"Plat (plasminogen activator, tissue)",3,67.4,50,inactive
Wnt10b (WNT family member 10B),1,108,115,inactive
Wnt10b (WNT family member 10B),2,75.1,34.2,inactive
Wnt10b (WNT family member 10B),3,52.6,56.4,inactive
Msr1 (macrophage scavenger receptor 1),1,149,78.9,active
Msr1 (macrophage scavenger receptor 1),2,83.8,67,inactive
Msr1 (macrophage scavenger receptor 1),3,106,101,inactive
"Amelx (amelogenin, X-linked)",1,137,85.3,active
"Amelx (amelogenin, X-linked)",2,36.9,22.4,inactive
"Amelx (amelogenin, X-linked)",3,54.1,62.4,inactive
Zfp708 (zinc finger protein 708),1,37.3,33.9,inactive
Zfp708 (zinc finger protein 708),2,46.8,64,inactive
Zfp708 (zinc finger protein 708),3,58.2,65.6,inactive
Afg2a (AFG2 AAA ATPase homolog A),1,79.9,95.8,inactive
Afg2a (AFG2 AAA ATPase homolog A),2,88,46.3,inactive
Setmar (SET domain without mariner transposase fusion),1,110,122,inactive
Setmar (SET domain without mariner transposase fusion),2,60.1,55.4,inactive
Siglecl2 (Siglec family like 2),1,89.7,60.4,inactive
Siglecl2 (Siglec family like 2),2,46.4,61.4,inactive
Siglecl2 (Siglec family like 2),3,95.9,87.6,inactive
Dhx16 (DEAH-box helicase 16),1,69.8,72.1,inactive
Dhx16 (DEAH-box helicase 16),2,109,123,inactive
Dhx16 (DEAH-box helicase 16),3,71,92.8,inactive
Tafa1 (TAFA chemokine like family member 1),1,75.5,78.7,inactive
Tafa1 (TAFA chemokine like family member 1),2,39.3,49.4,inactive
Tafa1 (TAFA chemokine like family member 1),3,67.1,91.3,inactive
Ddx18 (DEAD box helicase 18),1,62.8,56.6,inactive
Ddx18 (DEAD box helicase 18),2,75.3,51.4,inactive
Ddx18 (DEAD box helicase 18),3,81.7,148,inactive
Pabpn1l (poly(A)binding protein nuclear 1-like),1,196,143,active
Pabpn1l (poly(A)binding protein nuclear 1-like),2,41.9,63.4,inactive
Pabpn1l (poly(A)binding protein nuclear 1-like),3,21.6,16.1,inactive
Mex3d (mex3 RNA binding family member D),1,57.2,27.3,inactive
Mex3d (mex3 RNA binding family member D),2,50.9,52.5,inactive
Mex3d (mex3 RNA binding family member D),3,95,94.6,inactive
"Farp1 (FERM, ARH/RhoGEF and pleckstrin domain protein 1)",1,73.1,73.6,inactive
"Farp1 (FERM, ARH/RhoGEF and pleckstrin domain protein 1)",2,84.7,77,inactive
"Farp1 (FERM, ARH/RhoGEF and pleckstrin domain protein 1)",3,53.8,42,inactive
Kpna2 (karyopherin subunit alpha 2),1,122,75.8,active
Kpna2 (karyopherin subunit alpha 2),2,49.7,50.5,inactive
Kpna2 (karyopherin subunit alpha 2),3,79,70.8,inactive
